## Assay results

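Uptake of anthrax lethal toxin into cultured cells, read by FRET (460/530 nm ratio) and reported from the 460 nm channel; the cell line is not named here.
Each compound was tested as a concentration series from about 0.0005 to 40 µM.
The number is the fitted AC50 of the 460 nm signal alone; lower values mean a more potent effect. A falling signal goes with compounds filed as inhibitors or cytotoxic, a rising one with activators or fluorescent compounds (inferred from the filed classes).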

Values are in µM.
Common to all entries: measured here: 460 nm channel.
Part of the compounds only, not a random draw; the main read-out is not listed here.
Potencies fitted to partial, single-point or poorly fitting curves are rough.
The first word of each remark tells which way the curve ran; it can be opposite to the aim of the assay.

| # | Compound | AC50 (µM) | remark |
|---|---|---|---|
| 1 | `CCCCCn1c(=O)c(C(=O)NCc2ccccn2)c(O)c2ccccc21` | 12.59 | falling, partial curve |
| 2 | `COc1cc(NS(C)(=O)=O)ccc1Nc1c2ccccc2nc2ccccc12` | 15.85 | rising, partial curve, poor fit |
| 3 | `CCOc1ccccc1C1C2C(=O)N(c3ccccc3)C(=O)C2ON1c1ccccc1` (stereo unspecified) | 0.01 | falling, full curve, poor fit |
| 4 | `O=C(Oc1cc2oc(=O)c3c(c2cc1Cl)CCCC3)c1ccco1` | 7.943 | rising, partial curve |
| 5 | `CCOC(=O)CSc1nc2c(sc(=S)n2Cc2ccco2)c(=O)n1-c1ccccc1` | 12.59 | rising, single point |
| 6 | `CCCCCCCCCCCCCC(=O)O` | 31.62 | falling, partial curve |
| 7 | `CC(C)CCSc1nc(N2CCOCC2)c2c(c1C#N)CC(C)(C)OC2` | 3.162 | rising, partial curve |
| 8 | `CNC(=O)Oc1ccc2c(c1)[C@@]1(C)CCN(C)[C@@H]1N2C` | 12.59 | falling, single point |
| 9 | `CN(C)Cc1cc(C(C)(C)C)cc(CNC2CCCCC2)c1O` | 1 | rising, single point |
| 10 | `CCN(C(=O)c1cc2cc(OC)ccc2oc1=O)c1ccccc1` | 0.631 | falling, full curve |
| 11 | `O=C1NCCCC2c3c(cc(Br)c(O)c3Br)OC12N1CCOCC1` (stereo unspecified) | 2.512 | falling, full curve, poor fit |
| 12 | `CCOC(=O)C1=C(C)NC(=O)NC1c1ccc(OCC(=O)OC)c(OC)c1` (stereo unspecified) | 1.259 | rising, partial curve |
| 13 | `Cc1cc(C)n(-c2ccc(N3CCOCC3)nn2)n1` | 5.012 | rising, single point |
| 14 | `COc1ccc(-c2noc(N(C)CC(=O)Nc3cccc(C(F)(F)F)c3)n2)cc1` | 12.59 | falling, partial curve |
| 15 | `O=C(c1ccccc1)c1ccc(C(=O)N2CCN(c3ccc(F)cc3)CC2)o1` | 31.62 | falling, single point |
| 16 | `COc1ccc2c(CC(=O)Nc3ccc(OC)c(NS(=O)(=O)c4ccc(F)cc4)c3)coc2c1` | 7.943 | falling, partial curve |
| 17 | `CCOc1ccc(Cc2nccc3cc(OCC)c(OCC)cc23)cc1OCC` | 5.012 | rising, partial curve |
| 18 | `C=C[C@@H]1CN2CC[C@H]1C[C@H]2[C@@H](O)c1ccnc2ccccc12` | 12.59 | falling, single point |
| 19 | `CCC1Oc2ccc(C)cc2N(CC(=O)NCCCN2CCCCC2CC)C1=O` (stereo unspecified) | 0.1995 | falling, full curve, poor fit |
| 20 | `O=c1[nH]cnc2ccccc12` | 1 | falling, full curve, poor fit |
| 21 | `CCN(CC)CCCN=Cc1c(O)n(Cc2ccc(F)cc2)c(=O)[nH]c1=O` | 1.995 | falling, partial curve, poor fit |
| 22 | `c1ccc(-c2cnnc(N3CCCCC3)n2)cc1` | 31.62 | falling, partial curve, poor fit |
| 23 | `CN(Cc1ccco1)c1nc(-c2ccccc2C(F)(F)F)nc2ccccc12` | 25.12 | falling, single point |
| 24 | `CC(CCc1ccccc1)NC(=O)C1CCN(S(=O)(=O)N2CCCCC2)CC1` (stereo unspecified) | 2.512 | falling, single point |
| 25 | `COCCNC(=O)C(c1cccs1)N(CCc1ccccc1)C(=O)Cn1nnc2ccccc21` (stereo unspecified) | 19.95 | rising, single point |
| 26 | `OCCN1CCN(CCCN2c3ccccc3Sc3ccc(Cl)cc32)CC1` | 25.12 | falling, partial curve |
| 27 | `Cn1c(C(=O)N2CCC3(CC2)OCCO3)cc2c(=O)n(C)c3ccccc3c21` | 0.02512 | rising, full curve |
| 28 | `N#CC(C(=O)NCc1ccco1)c1nc2ccccc2nc1N1CCOCC1` (stereo unspecified) | 0.01259 | falling, full curve, poor fit |
| 29 | `CSCCC1NC2(C(=O)Nc3c(C)cc(Cl)cc32)[C@@H]2C(=O)N(C3CCCC3)C(=O)[C@H]12` (stereo partly specified) | 25.12 | rising, single point |
| 30 | `COCCCCC(=NOCCN)c1ccc(C(F)(F)F)cc1` | 12.59 | falling, partial curve |
| 31 | `O=C(NCc1ccc2c(c1)OCO2)c1cccc(C(=O)NCc2ccc3c(c2)OCO3)c1` | 12.59 | falling, single point |
| 32 | `O=C(c1ccc(CS(=O)(=O)c2ccc(Br)cc2)o1)N1CCN(c2ccccn2)CC1` | 10 | falling, partial curve |
| 33 | `COC(=O)C1=C(N)Oc2cc(C)[nH]c(=O)c2C1c1cc(OC)c(OC)c(OC)c1` (stereo unspecified) | 0.02512 | falling, full curve, poor fit |
| 34 | `CN1CCN(c2ncc3nc(CCc4ccccc4)c(=O)n(C)c3n2)CC1` | 5.012 | falling, partial curve |
| 35 | `CC(C)[C@H]1C(=O)N2CCC[C@@H]2[C@]2(O)O[C@@](NC(=O)[C@H]3C=C4c5cccc6[nH]cc(c56)C[C@H]4N(C)C3)(C(C)C)C(=O)N12` | 12.59 | falling, single point |
| 36 | `CC(C)Cn1c(SC(C)C(=O)Nc2ccc3c(c2)OCCO3)nc2ccccc2c1=O` (stereo unspecified) | 25.12 | rising, single point |
| 37 | `COc1ccccc1-c1c(C)oc2cc(OC(=O)c3ccco3)ccc2c1=O` | 3.162 | falling, partial curve |
| 38 | `CCOC(=O)c1ccccc1NC1c2ccccc2C(=O)N1c1ccc(C)cn1` (stereo unspecified) | 10 | falling, partial curve |
| 39 | `NC1(C(=O)O)CCC1` | 12.59 | falling, single point |
| 40 | `CCCN(CCC)c1nc(NC2CCN(C(=O)OCC)CC2)nc(OC)n1` | 10 | falling, partial curve |
| 41 | `COc1ccccc1-c1cc(C(=O)N2CCN(c3ccccc3OC)CC2)no1` | 12.59 | falling, single point |
| 42 | `Cc1ccc(OCC(O)Cn2c(=N)n(CCN3CCCCC3)c3ccccc32)cc1` (stereo unspecified) | 3.162 | falling, full curve |
| 43 | `COC(=O)[C@@]1(Cc2ccc(OC)cc2)[C@H]2c3cc(C(=O)N4CCCC4)n(Cc4ccc(OC)c(OC)c4)c3C[C@H]2CN1C(=O)c1ccccc1` | 15.85 | rising, partial curve |
| 44 | `COC(=O)Cc1[nH]nc2c1C(C1C=CCCC1)C(C#N)=C(N)O2` (stereo unspecified) | 12.59 | rising, partial curve |

Source: PubChem BioAssay AID912 (NCATS, 2007).